The AC50 is the concentration at which the activity in the assay is half-maximal.

Some of the results follow. Further columns of the screen follow, without active or inactive calls. Most of these compounds were active or inconclusive in the main read-out, so they are no random draw. Words in brackets tell the shape of the fitted curve; partial curves, single points and poor fits give uncertain potencies.

In PubChem BioAssay AID445 (National Center for Advancing Translational Sciences (NCATS), 2006) one finds AC50 data, which are given here for 63 compounds.

The nature of the assay: IkB Signaling. Particulars: ABC-DLBCL IkBa-CBG/CBR dual luciferase ratio (green luciferase fused to IkBa over red control in OCI-Ly3 lymphoma cells), 4 h. The method in brief: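 Luminescence ratio of IκBα-fused green versus native red beetle luciferase in OCI-Ly3 cells, 4 h post-doxycycline with compound; red signal alone, scaled from basal (0%) to zero light (-100%), flagged nonspecific or cytotoxic effects.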
The mark [1] stands for this setting: measured here: control luc red channel unless noted.

Take `CC(=O)Oc1ccccc1N1C(=O)c2ccc(C(=O)O)cc2C1=O`: the AC50 under setting [1] is 3.98 µM [falling, partial curve].

Regarding `O=C(c1cc(-c2ccc(F)cc2)on1)N1CCN(c2ccc(F)cc2)CC1`, the AC50 under setting [1] is 3.16 µM [falling, full curve]. With `COc1ccc(C2=NCC(CSc3nccc(=O)[nH]3)S2)cc1` (centres undefined), the AC50 under setting [1] is 39.8 µM [falling, single point].

With `Cn1nc(C(=O)N2CCN(c3ccccc3F)CC2)c2c1-c1ccccc1S(=O)(=O)C2`, the AC50 under setting [1] was 5.01 µM [falling, full curve, poor fit].

With `CCOC(=O)c1ccccc1NC(=O)c1cc2ccc3cccnc3c2[nH]1`, under setting [1], the AC50 was 2.51 µM [falling, partial curve]. `CCCOC(=O)CSc1nnc(-c2ccccc2)o1`: the AC50 under setting [1] was 3.16 µM [rising, partial curve].

As to `CC(C)c1ccc(CNc2nc(-c3ccco3)nn2S(=O)(=O)c2ccc(F)cc2)cc1`, the AC50 under setting [1] was 12.6 µM [falling, partial curve]. For the compound `CC(C)(C)C1CCc2onc(C(=O)Nc3sc4c(c3C#N)CCCC4)c2C1` (centres undefined), under setting [1], the AC50 is 0.0794 µM [falling, full curve]. Turning to `Cc1cccc(NC(=O)N2CCC(N3CCN(Cc4ccccc4)C(=O)C3=O)CC2)c1C`, the AC50 under setting [1] was 39.8 µM [rising, single point].

On to `Cc1ccccc1CSc1nncn1N`, for which, under setting [1], the AC50 is 1.26 µM [falling, full curve]. As to `CCOC(=O)c1c(C)[nH]c(C(=O)Cn2c(=O)c3c(ncn3CC)n(Cc3ccccc3)c2=O)c1C`, the AC50 under setting [1] is 25.1 µM [falling, partial curve]. Turning to `Cc1ccc(C)c(-n2c(SCC(=O)Nc3nnc(C)s3)nnc2-c2ccoc2C)c1`, the AC50 under setting [1] was 39.8 µM [falling, single point]. Consider `O=C(Cn1cc(C(=O)c2ccccc2)c(=O)c2cc3c(cc21)OCCO3)Nc1ccc(F)c(F)c1`, for which the AC50 under setting [1] was 12.6 µM [falling, partial curve]. As for `Cc1ccc(C)c(N2CCN(S(=O)(=O)c3ccc(C(=O)N(C)C)s3)CC2)c1`, the AC50 under setting [1] is 15.8 µM [falling, partial curve].

On to `CCn1nnc2cc(C(=O)Nc3cc(C)ccc3C)ccc21`, for which the AC50 under setting [1] was 31.6 µM [falling, partial curve].

Regarding `CCOc1ccc(CC(=O)NCc2ccc3c(c2)CCN3C(=O)c2ccccc2)cc1OCC`, the AC50 under setting [1] was 6.31 µM [falling, single point]. Turning to `COc1ccc(NC(=O)CC2C(=O)N(c3cccc(OC)c3)C(=O)N2CCC2=CCCCC2)cc1` (centres undefined), the AC50 under setting [1] is 20 µM [falling, single point]. Take `Cc1ccc(NS(=O)(=O)c2ccc3nc(-c4ccccc4)[nH]c3c2)c(Br)c1`: the half-maximal activity concentration (AC50) under setting [1] was 0.501 µM [falling, partial curve].

Take `Cc1ccc(Nc2nc3ccc(C(=O)c4ccccc4)cc3n3c(C)nnc23)c(C)c1`: the half-maximal activity concentration (AC50) under setting [1] is 31.6 µM [falling, single point]. As for `Cc1sc2ncn(CC(=O)N(C)c3ccc(C(C)C)cc3)c(=O)c2c1S(=O)(=O)N1CCC(C)CC1`, the half-maximal activity concentration (AC50) under setting [1] is 15.8 µM [falling, partial curve]. With `CC1CCC(NC(=O)C2(C)Cc3ccccc3C(=O)N2Cc2ccc(Cl)cc2)CC1` (centres undefined), the AC50 under setting [1] is 0.0158 µM [falling, full curve, poor fit]. On the same count and under the same terms, under `COc1ccccc1-c1cc(C(=O)Nc2cc(C)on2)no1` stands 0.501 µM [falling, full curve]; under `CC(=O)c1cccc(NC(=O)CN2C(=O)CC(c3ccc(C)cc3C)=Nc3ccccc32)c1`, 5.01 µM [falling, partial curve]. For `O=C(/C=C/c1ccc(Cl)cc1)N1CCC(c2nc3ccccc3o2)CC1`, the AC50 under setting [1] was 0.501 µM [falling, full curve]. As for `CCCCN(CC)CCCNC(=O)c1cn(CC)c2ccc(S(=O)(=O)N3CCc4ccccc4C3)cc2c1=O`, under setting [1], the AC50 was 20 µM [falling, single point]. With `CC(=O)Nc1nnc2n1CCS2`, under setting [1], the AC50 is 0.2 µM [falling, full curve, poor fit].

With `Cc1ccc(CN2CCC(CNC(=O)Nc3ccc(C)c(C)c3)C2)cc1` (centres undefined), the AC50 under setting [1] is 15.8 µM [falling, partial curve]. As to `Cc1noc(C)c1COC(=O)c1cc2c3ccccc3n(C)c2s1`, the AC50 under setting [1] is 20 µM [falling, partial curve]. As to `COc1ccc(C)cc1NC(=O)c1oc2ccc(S(=O)(=O)N3CCC4(CC3)OCCO4)cc2c1C`, the AC50 under setting [1] was 20 µM [falling, single point].

For the compound `COC(=O)c1ccc(COc2ccc3c(C)c(C)c(=O)oc3c2C)o1`, the AC50 under setting [1] is 12.6 µM [falling, partial curve]. Turning to `CCOC(=O)c1ccc(N2CCN(c3cc(C)ccc3C)CC2)c(NC(=O)Nc2ccc(Cl)cc2)c1`, the AC50 under setting [1] is 0.0631 µM [rising, full curve, poor fit].

For `CCCCc1ccc2nc(NC(=O)OC)[nH]c2c1`, the AC50 reads like this: (measured here: IkB-luc green channel) 0.501 µM [rising, full curve]; (measured here: control luc red channel) 0.158 µM [rising, full curve]. Take `Cc1nc2nc(C)c(NS(=O)(=O)c3ccc(CC(C)C)cc3)c(=O)n2[nH]1`: under setting [1], the AC50 was 20 µM [falling, partial curve]. In the case of `CCn1c(CN2CCOCC2)nc2cc(NC(=O)c3cccc([N+](=O)[O-])c3)ccc21`, the AC50 under setting [1] is 25.1 µM [falling, partial curve]. On the same count and under the same terms, under `NC(=O)CSc1nc2sc3c(c2c2ncnn12)CCCC3` stands 15.8 µM [rising, partial curve].

For `Cc1cc(NC(=O)CCCS(=O)(=O)c2nc(-c3cccs3)cc(C(F)(F)F)n2)no1`, the AC50 under setting [1] was 3.16 µM [falling, full curve]. Regarding `Cn1c(=O)c2c(-c3ccccc3)n(CCCO)cc2n(C)c1=O`, the concentration at half-maximal activity (AC50) under setting [1] was 12.6 µM [rising, partial curve]. As to `CC1CC(C)CN(S(=O)(=O)c2ccc(C(=O)N3CCN(c4ccccc4)CC3)cc2)C1` (centres undefined), the AC50 under setting [1] was 10 µM [falling, partial curve]. With `CCN(CC)S(=O)(=O)c1ccc2oc(C(=O)NCc3ccc(F)cc3)c(C)c2c1`, under setting [1], the AC50 is 10 µM [falling, partial curve].

As for `CCN(CC)CCOC(=O)c1ccc(NC(=O)c2cc3c(s2)-c2ccccc2OC3)cc1`, the AC50 under setting [1] was 0.631 µM [falling, partial curve]. On the same count and under the same terms, under `Clc1cccc(C2=NC(c3cccs3)=Nc3ccc(Br)cc3N2)c1` stands 15.8 µM [falling, single point]; under `Cc1nc(-c2ccc(S(=O)(=O)Nc3ccc(Cl)c(C(F)(F)F)c3)cc2)co1`, 31.6 µM [falling, partial curve, poor fit]; under `CCOc1ccccc1CNC(=O)c1cnc2sc(N(CC)CC)nn2c1=O`, 39.8 µM [falling, single point]. For the compound `CC(C)CN(CCNC(=O)c1cc(-c2cccs2)nc2ccccc12)CC(C)C`, the AC50 under setting [1] was 15.8 µM [falling, single point]. On to `Cn1c(=O)c2c(c3ccccc31)OC(=O)CC2c1cccc(Cl)c1` (centres undefined), for which the AC50 under setting [1] was 2.51 µM [falling, partial curve]. For `COc1ccccc1/C=C/c1nc(C#N)c(NCC(C)C)o1`, the AC50 under setting [1] is 25.1 µM [falling, single point]. Turning to `Cc1ccc(-c2nc(CCNC(=O)C(=O)Nc3c(C)cccc3C)cs2)cc1`, the half-maximal activity concentration (AC50) under setting [1] is 0.631 µM [rising, full curve]. In the case of `COc1ccccc1CNc1ncnc2c1nnn2Cc1ccccc1`, the concentration at half-maximal activity (AC50) under setting [1] is 12.6 µM [falling, partial curve]. Regarding `Cc1ccc(-c2nn(C)c(=O)c3ccccc23)cc1S(=O)(=O)N1CCCC1`, the AC50 under setting [1] was 25.1 µM [rising, partial curve] [measured here: IkB-luc green channel]. As to `COc1cc2[nH]c3c(N4CCN(c5ccccn5)CC4)ncnc3c2cc1OC`, the AC50 under setting [1] is 3.16 µM [falling, full curve, poor fit]. Take `Cc1nc(NCc2ccco2)c2c3c(sc2n1)CCC3`: under setting [1], the AC50 was 39.8 µM [falling, single point]. On to `CCCN(CCC)C(=O)c1nn(C)c2c1CSc1ccc(C)cc1-2`, for which the AC50 under setting [1] was 31.6 µM [falling, partial curve].

Turning to `CC(C)c1nnc(NC(=O)c2c(O)c3cccc4c3n(c2=O)CC4)s1`, under setting [1], the AC50 is 0.0794 µM [falling, full curve]. On to `CSc1ccccc1NC(=O)c1noc2c1CCC2`, for which the AC50 under setting [1] was 6.31 µM [falling, partial curve]. On the same count and under the same terms, under `O=C(O)c1ccc(-n2c(-c3ccccc3)n[nH]c2=S)cc1` stands 10 µM [falling, partial curve]; under `CC(C)Cn1c(=O)c2ccccc2n2c(CCC(=O)Nc3ccc(F)cc3)nnc12`, 0.2 µM [falling, partial curve, poor fit]; under `CCOC(=O)N1CCC(NC(=O)c2cnn(-c3ccc(OC)cc3)c2C2CCN(C(=O)OC(C)(C)C)CC2)CC1`, 15.8 µM [falling, single point]. `Fc1ccc2[nH]c3c(N4CCSCC4)ncnc3c2c1`: the half-maximal activity concentration (AC50) under setting [1] is 6.31 µM [falling, full curve]. On the same count and under the same terms, under `Cc1ccccc1NC(=O)COc1ccc2oc3c(c2c1)CCCC3` stands 12.6 µM [falling, partial curve]; under `Cc1cc(Cl)ccc1OC(C)C(=O)Nc1ccccc1N1CCOCC1` (centres undefined), 31.6 µM [falling, single point]. `O=C(CN1C(=O)COc2ccc(S(=O)(=O)N3CCCCCC3)cc21)N1CCN(c2ccc(F)cc2)CC1`: under setting [1], the AC50 is 31.6 µM [falling, single point]. On to `COc1ccc(-c2cc3nc(C)c(CCC(=O)NCCc4ccc(Cl)cc4)c(C)n3n2)c(OC)c1`, for which the AC50 under setting [1] was 2 µM [falling, full curve]. `Cc1ccc(Cn2c(=O)c3cccnc3n(Cc3ccc(C)cc3)c2=O)cc1`: the AC50 under setting [1] is 0.0794 µM [falling, partial curve, poor fit].
